The other results are listed elsewhere or left out.
Compound: CC1Cc2ccccc2N1C(=O)C1CCCN(C1)C(=O)CCl (mixture of isomers) [TRIM25 ligand 11 (diastereomer mixture)]
Assay: probe-labelled cysteine peptide fold change vs DMSO (competition) (log2 fold change); higher = less target engagement (more negative = stronger competition)
Details: THP-1, incubation time: 4 h
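Further: competitive chemoproteomic profiling in live THP-1 cells with an iodoacetamide desthiobiotin (IA-DTB) probe, comparing probe-labelled peptide intensities in compound-treated cells against DMSO-treated controls.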

The chains behind the UniProt entries cited, without tags or fusion partners. Where a name states a change or a piece, a line headed by the entry shows the natural chain unless it says otherwise.
UniProt Q9Y6B6: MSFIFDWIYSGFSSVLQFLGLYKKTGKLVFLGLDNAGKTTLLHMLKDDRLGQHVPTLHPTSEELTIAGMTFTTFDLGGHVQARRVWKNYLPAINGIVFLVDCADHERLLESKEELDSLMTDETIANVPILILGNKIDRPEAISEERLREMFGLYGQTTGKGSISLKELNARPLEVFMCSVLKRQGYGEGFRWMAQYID
UniProt P31040: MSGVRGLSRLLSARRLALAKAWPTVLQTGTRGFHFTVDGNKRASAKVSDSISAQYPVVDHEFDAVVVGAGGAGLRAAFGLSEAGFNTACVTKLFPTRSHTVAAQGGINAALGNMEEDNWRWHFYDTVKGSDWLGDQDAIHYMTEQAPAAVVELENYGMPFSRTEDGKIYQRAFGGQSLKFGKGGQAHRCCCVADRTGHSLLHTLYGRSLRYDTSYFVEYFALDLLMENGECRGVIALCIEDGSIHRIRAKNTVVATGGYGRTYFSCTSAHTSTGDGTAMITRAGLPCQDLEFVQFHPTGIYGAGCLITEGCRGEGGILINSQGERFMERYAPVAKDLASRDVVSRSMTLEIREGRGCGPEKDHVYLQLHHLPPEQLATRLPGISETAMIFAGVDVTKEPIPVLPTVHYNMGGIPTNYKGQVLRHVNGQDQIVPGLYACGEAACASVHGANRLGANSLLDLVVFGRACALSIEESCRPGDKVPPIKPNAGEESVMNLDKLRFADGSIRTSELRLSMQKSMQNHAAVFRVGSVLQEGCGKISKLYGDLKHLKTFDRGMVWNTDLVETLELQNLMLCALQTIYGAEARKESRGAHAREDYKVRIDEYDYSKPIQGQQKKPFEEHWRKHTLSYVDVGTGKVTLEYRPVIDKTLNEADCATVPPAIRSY
UniProt P55735: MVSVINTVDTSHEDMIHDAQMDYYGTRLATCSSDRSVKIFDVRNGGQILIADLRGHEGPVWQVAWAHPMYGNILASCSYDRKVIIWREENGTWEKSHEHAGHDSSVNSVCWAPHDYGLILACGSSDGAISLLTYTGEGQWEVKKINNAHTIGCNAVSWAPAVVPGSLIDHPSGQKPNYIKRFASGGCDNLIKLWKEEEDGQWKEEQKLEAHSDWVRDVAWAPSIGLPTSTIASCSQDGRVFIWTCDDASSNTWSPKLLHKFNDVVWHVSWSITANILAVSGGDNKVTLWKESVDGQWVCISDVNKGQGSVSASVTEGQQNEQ
UniProt Q9HCN8: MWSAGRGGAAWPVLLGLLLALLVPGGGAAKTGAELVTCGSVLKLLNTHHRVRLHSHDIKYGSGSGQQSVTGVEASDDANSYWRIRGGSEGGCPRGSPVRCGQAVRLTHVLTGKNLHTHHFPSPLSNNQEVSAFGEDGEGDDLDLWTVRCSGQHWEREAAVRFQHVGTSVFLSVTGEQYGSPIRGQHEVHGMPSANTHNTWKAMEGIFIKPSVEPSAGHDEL
UniProt P49903: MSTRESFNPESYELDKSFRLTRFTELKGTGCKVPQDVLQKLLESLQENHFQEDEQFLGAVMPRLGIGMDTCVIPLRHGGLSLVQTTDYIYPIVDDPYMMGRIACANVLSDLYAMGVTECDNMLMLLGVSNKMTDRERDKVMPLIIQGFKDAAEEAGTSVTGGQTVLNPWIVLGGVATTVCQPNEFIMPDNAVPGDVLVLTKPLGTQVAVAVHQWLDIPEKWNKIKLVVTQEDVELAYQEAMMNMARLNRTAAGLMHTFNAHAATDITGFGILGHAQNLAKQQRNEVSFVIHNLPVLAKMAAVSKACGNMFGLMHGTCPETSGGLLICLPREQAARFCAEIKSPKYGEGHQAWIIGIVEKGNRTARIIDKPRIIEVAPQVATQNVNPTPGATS
UniProt Q14160: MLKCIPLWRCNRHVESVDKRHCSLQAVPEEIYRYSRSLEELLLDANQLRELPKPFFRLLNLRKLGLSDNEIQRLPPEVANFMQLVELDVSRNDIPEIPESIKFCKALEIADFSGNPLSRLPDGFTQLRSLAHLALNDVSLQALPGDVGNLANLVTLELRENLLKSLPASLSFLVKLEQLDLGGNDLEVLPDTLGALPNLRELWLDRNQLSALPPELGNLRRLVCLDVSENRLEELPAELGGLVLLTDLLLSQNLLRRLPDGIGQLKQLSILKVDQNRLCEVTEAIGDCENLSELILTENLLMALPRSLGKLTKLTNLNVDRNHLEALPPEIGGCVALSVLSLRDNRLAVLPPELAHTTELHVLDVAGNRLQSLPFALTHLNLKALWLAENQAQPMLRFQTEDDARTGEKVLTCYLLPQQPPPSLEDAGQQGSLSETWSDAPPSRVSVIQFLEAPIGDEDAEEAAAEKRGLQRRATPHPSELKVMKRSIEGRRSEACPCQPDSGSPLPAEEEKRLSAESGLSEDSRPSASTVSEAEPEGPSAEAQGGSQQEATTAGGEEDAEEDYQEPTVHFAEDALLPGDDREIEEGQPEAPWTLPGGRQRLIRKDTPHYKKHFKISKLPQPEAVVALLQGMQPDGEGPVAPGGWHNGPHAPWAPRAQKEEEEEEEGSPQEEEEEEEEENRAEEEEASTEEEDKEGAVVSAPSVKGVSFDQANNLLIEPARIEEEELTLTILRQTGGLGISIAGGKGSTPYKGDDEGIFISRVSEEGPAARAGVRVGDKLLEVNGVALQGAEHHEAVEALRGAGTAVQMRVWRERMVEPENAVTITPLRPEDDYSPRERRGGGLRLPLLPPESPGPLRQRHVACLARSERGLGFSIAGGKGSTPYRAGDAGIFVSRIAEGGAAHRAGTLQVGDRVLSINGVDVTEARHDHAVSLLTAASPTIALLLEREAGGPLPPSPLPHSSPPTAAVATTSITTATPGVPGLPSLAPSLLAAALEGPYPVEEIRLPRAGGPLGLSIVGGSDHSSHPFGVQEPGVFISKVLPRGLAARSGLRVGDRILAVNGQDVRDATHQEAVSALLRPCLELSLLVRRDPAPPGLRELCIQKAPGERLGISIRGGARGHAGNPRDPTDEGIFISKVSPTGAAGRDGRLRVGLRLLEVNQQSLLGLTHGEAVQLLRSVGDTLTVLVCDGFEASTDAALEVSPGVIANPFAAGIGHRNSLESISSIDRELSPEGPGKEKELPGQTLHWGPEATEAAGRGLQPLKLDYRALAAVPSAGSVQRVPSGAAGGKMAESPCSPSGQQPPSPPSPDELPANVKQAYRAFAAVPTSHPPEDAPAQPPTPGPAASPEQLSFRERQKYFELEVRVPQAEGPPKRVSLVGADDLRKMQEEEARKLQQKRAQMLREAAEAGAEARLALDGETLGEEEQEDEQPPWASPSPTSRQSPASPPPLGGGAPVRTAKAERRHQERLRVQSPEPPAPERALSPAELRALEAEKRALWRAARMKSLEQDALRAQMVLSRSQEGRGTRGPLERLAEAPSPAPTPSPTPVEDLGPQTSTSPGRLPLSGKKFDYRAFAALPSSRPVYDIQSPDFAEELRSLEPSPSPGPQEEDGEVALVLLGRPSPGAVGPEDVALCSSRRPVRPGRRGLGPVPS
UniProt Q9Y3A5: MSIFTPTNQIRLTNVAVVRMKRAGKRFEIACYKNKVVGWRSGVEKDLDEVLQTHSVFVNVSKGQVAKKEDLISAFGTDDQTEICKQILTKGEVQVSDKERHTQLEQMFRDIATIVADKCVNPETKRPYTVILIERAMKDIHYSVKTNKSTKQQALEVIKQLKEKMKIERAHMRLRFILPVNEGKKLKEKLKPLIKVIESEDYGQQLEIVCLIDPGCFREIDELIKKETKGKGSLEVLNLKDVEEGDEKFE
UniProt Q96GA7: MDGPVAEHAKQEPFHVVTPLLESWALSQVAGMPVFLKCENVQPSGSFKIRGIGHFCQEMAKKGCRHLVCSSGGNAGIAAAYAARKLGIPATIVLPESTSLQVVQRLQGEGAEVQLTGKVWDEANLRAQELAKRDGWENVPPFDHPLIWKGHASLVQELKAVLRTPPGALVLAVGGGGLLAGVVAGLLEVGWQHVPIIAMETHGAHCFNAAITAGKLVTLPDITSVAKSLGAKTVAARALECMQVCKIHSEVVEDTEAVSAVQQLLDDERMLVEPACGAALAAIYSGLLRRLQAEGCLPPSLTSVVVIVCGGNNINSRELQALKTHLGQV
UniProt Q15436: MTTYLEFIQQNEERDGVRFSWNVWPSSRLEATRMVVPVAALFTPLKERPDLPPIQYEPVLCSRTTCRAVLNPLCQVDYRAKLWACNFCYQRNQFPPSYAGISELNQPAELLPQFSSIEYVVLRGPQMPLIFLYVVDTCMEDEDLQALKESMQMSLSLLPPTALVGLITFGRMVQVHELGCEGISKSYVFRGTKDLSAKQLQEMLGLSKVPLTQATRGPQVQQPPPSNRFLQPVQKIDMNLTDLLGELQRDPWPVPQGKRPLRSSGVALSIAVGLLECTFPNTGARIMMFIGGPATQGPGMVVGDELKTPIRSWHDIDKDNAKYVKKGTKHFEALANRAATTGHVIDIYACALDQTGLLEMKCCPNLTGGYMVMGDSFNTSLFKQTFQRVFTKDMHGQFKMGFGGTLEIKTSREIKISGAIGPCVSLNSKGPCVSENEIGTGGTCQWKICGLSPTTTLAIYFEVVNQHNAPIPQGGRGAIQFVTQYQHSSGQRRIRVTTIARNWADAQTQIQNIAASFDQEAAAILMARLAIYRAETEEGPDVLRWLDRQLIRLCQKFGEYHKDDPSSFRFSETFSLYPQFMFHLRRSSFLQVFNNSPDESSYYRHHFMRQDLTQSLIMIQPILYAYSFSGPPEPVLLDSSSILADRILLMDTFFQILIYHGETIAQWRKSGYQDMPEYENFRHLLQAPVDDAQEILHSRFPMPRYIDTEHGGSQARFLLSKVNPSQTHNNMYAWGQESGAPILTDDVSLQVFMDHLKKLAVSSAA
UniProt A3KN83: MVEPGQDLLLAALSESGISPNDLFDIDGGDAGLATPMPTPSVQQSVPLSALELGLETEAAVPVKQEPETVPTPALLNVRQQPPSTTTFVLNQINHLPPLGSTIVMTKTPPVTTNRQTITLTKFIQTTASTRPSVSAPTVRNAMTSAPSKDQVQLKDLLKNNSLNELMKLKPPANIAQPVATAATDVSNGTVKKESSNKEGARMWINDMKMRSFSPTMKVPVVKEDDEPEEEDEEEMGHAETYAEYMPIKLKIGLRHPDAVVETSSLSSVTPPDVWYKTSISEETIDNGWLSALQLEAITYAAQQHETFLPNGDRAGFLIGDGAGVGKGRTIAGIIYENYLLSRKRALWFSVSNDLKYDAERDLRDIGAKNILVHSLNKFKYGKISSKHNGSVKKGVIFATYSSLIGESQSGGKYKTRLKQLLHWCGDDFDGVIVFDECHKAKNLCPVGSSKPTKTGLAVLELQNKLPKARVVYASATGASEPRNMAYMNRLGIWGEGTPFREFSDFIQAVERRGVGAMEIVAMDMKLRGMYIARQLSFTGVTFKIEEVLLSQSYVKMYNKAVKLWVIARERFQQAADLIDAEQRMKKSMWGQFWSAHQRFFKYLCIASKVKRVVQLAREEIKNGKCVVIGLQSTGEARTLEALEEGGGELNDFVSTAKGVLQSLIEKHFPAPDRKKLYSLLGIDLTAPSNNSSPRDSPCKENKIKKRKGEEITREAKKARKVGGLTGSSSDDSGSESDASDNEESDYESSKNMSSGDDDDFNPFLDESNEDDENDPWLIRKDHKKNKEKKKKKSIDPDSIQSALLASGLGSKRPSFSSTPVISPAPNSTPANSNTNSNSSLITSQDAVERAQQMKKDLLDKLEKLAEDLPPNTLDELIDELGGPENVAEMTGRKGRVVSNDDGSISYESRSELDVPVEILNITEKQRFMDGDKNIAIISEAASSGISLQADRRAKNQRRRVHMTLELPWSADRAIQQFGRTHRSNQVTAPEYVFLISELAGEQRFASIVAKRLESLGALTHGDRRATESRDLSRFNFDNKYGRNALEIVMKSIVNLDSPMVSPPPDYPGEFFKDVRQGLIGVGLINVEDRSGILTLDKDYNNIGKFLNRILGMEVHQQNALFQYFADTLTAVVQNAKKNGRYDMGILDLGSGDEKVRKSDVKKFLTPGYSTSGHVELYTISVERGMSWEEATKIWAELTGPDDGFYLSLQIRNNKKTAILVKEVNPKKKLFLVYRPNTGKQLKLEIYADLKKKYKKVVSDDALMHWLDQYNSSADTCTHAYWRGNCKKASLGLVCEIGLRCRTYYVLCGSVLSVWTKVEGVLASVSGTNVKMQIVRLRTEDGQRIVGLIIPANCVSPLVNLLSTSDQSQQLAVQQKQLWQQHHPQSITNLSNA
UniProt P21912: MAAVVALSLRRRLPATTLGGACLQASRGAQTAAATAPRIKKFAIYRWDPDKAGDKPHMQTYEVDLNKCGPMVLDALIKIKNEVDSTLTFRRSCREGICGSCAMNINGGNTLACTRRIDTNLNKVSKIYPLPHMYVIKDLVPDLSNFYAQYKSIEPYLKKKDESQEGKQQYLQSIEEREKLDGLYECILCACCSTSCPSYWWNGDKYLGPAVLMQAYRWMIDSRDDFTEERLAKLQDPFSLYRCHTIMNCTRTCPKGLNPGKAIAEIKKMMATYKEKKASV

Target	probe-labelled cysteine peptide fold change (10 µM)	probe-labelled cysteine peptide fold change (50 µM)
SAR1B_Q9Y6B6_178_PLEVFMCSVLK (UniProt Q9Y6B6)	0.0453	-0.0532
SDHA_P31040_238_GVIALCIEDGSIHR (UniProt P31040)	0.141	0.0837
SDHA_P31040_475_ACALSIEESCRPGDK (UniProt P31040)	0.243	0.328
SEC24C_P53992_809_HDDRLNEESGALLQCALLYTSCAGQR (UniProt P53992)	0.144	0.08
SEC13_P55735_77_GHEGPVWQVAWAHPMYGNILASCSYDRK (UniProt P55735)	-0.0183	0.0241
SEC16A_O15027_107_DSSQGPCEPLPGPLTQPR (UniProt O15027)	-0.169	-0.0215
SDF2L1_Q9HCN8_92_GGSEGGCPR (UniProt Q9HCN8)	0.0108	0.00687
SEH1L_Q96EE3_49_SESGDWHCTASWK (UniProt Q96EE3)	0.19	-0.0142
SEPHS1_P49903_306_ACGNMFGLMHGTCPETSGGLLICLPR (UniProt P49903)	-0.137	-0.526
SCYL3_Q8IZE3_184_SIQSIRDPASIPPEEMSPEFTTLPECHGHAR (UniProt Q8IZE3)	0.199	0.088
SEL1L_Q9UBV2_153_LWCATTYDYK (UniProt Q9UBV2)	-0.0117	0.0985
SCRIB_Q14160_334_NHLEALPPEIGGCVALSVLSLR (UniProt Q14160)	-0.0211	0.199
SCAF11_Q99590_450_SCNEQIEESEK (UniProt Q99590)	-0.127	-0.271
SEC24C_P53992_493_RVDAYDRPELSLGSYEFLATVDYCK (UniProt P53992)	-0.123	0.0859
SBDS_Q9Y3A5_210+216_VIESEDYGQQLEIVCLIDPGCFR (UniProt Q9Y3A5)	0.0314	-0.236
SCRIB_Q14160_864_HVACLAR (UniProt Q14160)	0.00547	-0.0399
SEC24D_O94855_1021+1022_GLYGGSSYVDFLCCVHK (UniProt O94855)	-0.0116	-0.0443
SDSL_Q96GA7_296_LQAEGCLPPSLTSVVVIVCGGNNINSR (UniProt Q96GA7)	-0.173	-0.155
SEC31A_O94979_644_EIVESCDLK (UniProt O94979)	0.0885	0.0874
SCMH1_Q96GD3_225_DIFPVGWCSLTGDNLQPPGTK (UniProt Q96GD3)	-0.183	-0.00321
SCYL3_Q8IZE3_71_FLSCTVEADGIHLVTER (UniProt Q8IZE3)	0.0304	-0.0732
SBF1_O95248_896_LLPGEECVLDGLR (UniProt O95248)	0.00923	-0.0319
SDSL_Q96GA7_69_HLVCSSGGNAGIAAAYAAR (UniProt Q96GA7)	0.124	0.181
SEC31A_O94979_60_SCATFSSSHR (UniProt O94979)	0.132	-0.143
SAMHD1_Q9Y3Z3_266_PVMEQYGLIPEEDICFIK (UniProt Q9Y3Z3)	0.232	0.153
SCAF8_Q9UPN6_1170_DRDDRDFDFCR (UniProt Q9UPN6)	-0.00849	-0.163
SEC24C_P53992_452_FQCCFCSCINDVPPQYFQHLDHTGKR (UniProt P53992)	-0.0532	0.0237

Target	probe-labelled cysteine peptide fold change (10 µM)	probe-labelled cysteine peptide fold change (50 µM)
SATB2_Q9UPW6_195_ECPLSQSMISSIVNSTYYANVSATK (UniProt Q9UPW6)	0.34	0.324
SEC23A_Q15436_423_ISGAIGPCVSLNSK (UniProt Q15436)	0.0735	-0.0311
SBDS_Q9Y3A5_210_VIESEDYGQQLEIVCLIDPGCFR (UniProt Q9Y3A5)	-0.259	0.206
SBNO1_A3KN83_425_QLLHWCGDDFDGVIVFDECHK (UniProt A3KN83)	0.0519	0.0346
SDF2L1_Q9HCN8_92_IRGGSEGGCPR (UniProt Q9HCN8)	-0.268	-0.108
SEC13_P55735_245_VFIWTCDDASSNTWSPK (UniProt P55735)	-0.245	-0.0321
SCCPDH_Q8NBX0_238_RWPISYCR (UniProt Q8NBX0)	-0.106	-0.146
SCLT1_Q96NL6_506_LQNVLESERENCGLVSEQR (UniProt Q96NL6)	-0.159	0.0107
SEL1L3_Q68CR1_475_QEACHLHNSYLDLQR (UniProt Q68CR1)	-0.0373	-0.0246
SATB2_Q9UPW6_246_VERENLSDYCVLGQR (UniProt Q9UPW6)	0.0584	-0.00518
SAR1B_Q9Y6B6_102_NYLPAINGIVFLVDCADHER (UniProt Q9Y6B6)	0.177	0.151
SEC31A_O94979_173_TQPPEDISCIAWNR (UniProt O94979)	-0.0768	0.0339
SDHB_P21912_249_CHTIMNCTR (UniProt P21912)	-0.0566	0.201
SEC23A_Q15436_350_AATTGHVIDIYACALDQTGLLEMK (UniProt Q15436)	0.0214	0.0795
SBNO1_A3KN83_1277_VVSDDALMHWLDQYNSSADTCTHAYWR (UniProt A3KN83)	0.0166	0.0228
SEC31A_O94979_279_GILAIAWSMADPELLLSCGK (UniProt O94979)	-0.49	0.171
SEL1L_Q9UBV2_141_EYDECTSDGREDGR (UniProt Q9UBV2)	0.0147	-0.0218
SEC63_Q9UGP8_295_KNEPPLTCPYSLK (UniProt Q9UGP8)	-0.0396	-0.173
SEC24C_P53992_635_AAECAGK (UniProt P53992)	-0.00731	0.0421
SCRIB_Q14160_22_HCSLQAVPEEIYR (UniProt Q14160)	0.309	-0.163
SEC13_P55735_77_GHEGPVWQVAWAHPMYGNILASCSYDR (UniProt P55735)	-0.107	-0.123
SCAF11_Q99590_553_TDVCTVHLPNDFPTCLTSESK (UniProt Q99590)	0.0519	-0.221
SDR39U1_Q9NRG7_78_ITWDELAASGLPSCDAAVNLAGENILNPLRR (UniProt Q9NRG7)	-0.0975	0.0842
SEPHS1_P49903_317_ACGNMFGLMHGTCPETSGGLLICLPR (UniProt P49903)	-0.09	-0.258
SEMA4A_Q9H3S1_339_SSAVCAFSLLDIER (UniProt Q9H3S1)	-0.0131	-0.0829
SCLY_Q96I15_22_DAPAPAASQPSGCGK (UniProt Q96I15)	-0.0532	-0.13
SEC23B_Q15437_85_LWACNFCFQR (UniProt Q15437)	0.00976	-0.0607

A few values from the list:
SDF2L1_Q9HCN8_92_IRGGSEGGCPR (UniProt Q9HCN8) | probe-labelled cysteine peptide fold change (10 µM): -0.268
SBNO1_A3KN83_425_QLLHWCGDDFDGVIVFDECHK (UniProt A3KN83) | probe-labelled cysteine peptide fold change (10 µM): 0.0519
SEC31A_O94979_60_SCATFSSSHR (UniProt O94979) | probe-labelled cysteine peptide fold change (50 µM): -0.143

Source: the supplement of paper PMC12067093, “Discovery and optimisation of a covalent ligand for TRIM25 and its application to targeted protein ubiquitination” (Chemical Science, 2025)
